No constants are given. Whether binding was seen depends on the method and setting. In cells and extracts the contact can be indirect. Here binding means that the protein was enriched with, or labelled near, the bait; the list need not be complete.
Target: GF14-6:GFP (maize) (UniProt P49106)
Assay: affinity purification with mass spectrometry

Sequences of proteins named here, by UniProt entry; tags and fusion partners are left off.
UniProt P49106: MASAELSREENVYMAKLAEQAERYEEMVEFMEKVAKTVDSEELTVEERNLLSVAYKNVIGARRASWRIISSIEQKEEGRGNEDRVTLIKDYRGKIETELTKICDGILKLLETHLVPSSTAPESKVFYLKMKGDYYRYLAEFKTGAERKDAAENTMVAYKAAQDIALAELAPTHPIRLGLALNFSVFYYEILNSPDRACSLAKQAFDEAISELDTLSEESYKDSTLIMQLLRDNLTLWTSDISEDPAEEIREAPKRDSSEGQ

- binding: binds
B1: Phosphoenolpyruvate carboxylase 1 (PEP1) (protein, UniProt P04711 1-970)
chain: MASTKAPGPGEKHHSIDAQLRQLVPGKVSEDDKLIEYDALLVDRFLNILQDLHGPSLREFVQECYEVSADYEGKGDTTKLGELGAKLTGLAPADAILVASSILHMLNLANLAEEVQIAHRRRNSKLKKGGFADEGSATTESDIEETLKRLVSEVGKSPEEVFEALKNQTVDLVFTAHPTQSARRSLLQKNARIRNCLTQLNAKDITDDDKQELDEALQREIQAAFRTDEIRRAQPTPQAEMRYGMSYIHETVWKGVPKFLRRVDTALKNIGINERLPYNVSLIRFSSWMGGDRDGNPRVTPEVTRDVCLLARMMAANLYIDQIEELMFELSMWRCNDELRVRAEELHSSSGSKVTKYYIEFWKQIPPNEPYRVILGHVRDKLYNTRERARHLLASGVSEISAESSFTSIEEFLEPLELCYKSLCDCGDKAIADGSLLDLLRQVFTFGLSLVKLDIRQESERHTDVIDAITTHLGIGSYREWPEDKRQEWLLSELRGKRPLLPPDLPQTDEIADVIGAFHVLAELPPDSFGPYIISMATAPSDVLAVELLQRECGVRQPLPVVPLFERLADLQSAPASVERLFSVDWYMDRIKGKQQVMVGYSDSGKDAGRLSAAWQLYRAQEEMAQVAKRYGVKLTLFHGRGGTVGRGGGPTHLAILSQPPDTINGSIRVTVQGEVIEFCFGEEHLCFQTLQRFTAATLEHGMHPPVSPKPEWRKLMDEMAVVATEEYRSVVVKEARFVEYFRSATPETEYGRMNIGSRPAKRRPGGGITTLRAIPWIFSWTQTRFHLPVWLGVGAAFKFAIDKDVRNFQVLKEMYNEWPFFRVTLDLLEMVFAKGDPGIAGLYDELLVAEELKPFGKQLRDKYVETQQLLLQIAGHKDILEGDPFLKQGLVLRNPYITTLNVFQAYTLKRIRDPNFKVTPQPPLSKEFADENKPAGLVKLNPASEYPPGLEDTLILTMKGIAAGMQNTG

Source: article doi:10.1101/2022.04.27.489727
